# According to patent US20050032124A1, “Identification of genotype-selective agents for treating Huntington's disease” (priority 2003, published 2005):
# For at least one compound, name, drawing or mass did not settle the structure.
# System: BJ-TERT/LT/ST/RAS^V12 cells relative to BJ-TERT cells
# Assay: Alamar Blue viability assay
# Format: cell-based, human
smiles,measurement,value
CCOc1ccccc1-n1c(C(C)N2CCN(C(=O)COc3ccc(Cl)cc3)CC2)nc2ccccc2c1=O (stereo not shown) [Erastin],lethality in Alamar Blue viability assay,selective lethality
